The nature of this assay: qHTS Assay for Lipid Storage Modulators in Drosophila S3 Cells.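 For cell number change: cells counted by Cell Tracker Red CMTPX staining in the red channel.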 The conditions noted are these: BODIPY lipid droplet fluorescence, 18-24 h; for cell number change: measured here: cell count max response, cells fed with added oleic acid. Summed up: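 Drosophila S3 cells loaded with oleic acid (400 uM, as added) and compounds at several concentrations; lipid droplets imaged by 488-nm laser-scanning cytometry, 500–530 nm intensity and object ratio to cell channel. Percent activity normalized to 20 uM Triacsin C.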

Setting [1] is: measured here: cell number channel AC50, cells fed with added oleic acid.
Setting [2] is: measured here: lipid fluorescence (Fed channel) AC50, cells fed with added oleic acid.

Some of the results follow. The main result of the screen is listed elsewhere. These columns were measured beside it and carry no call. Most of these compounds were active or inconclusive in the main read-out, so they are no random draw. The note in brackets gives the kind of curve behind each potency; many fits are weak.

In the case of `NS(=O)(=O)c1cccc(NC(=O)c2cccnc2Oc2ccccc2)c1`, the cell number change came to 16.9%. Further, the AC50 under setting [1] is 6.51 µM [falling, single point]. In addition, the concentration at half-maximal activity (AC50) under setting [2] was 1.03 µM [falling, partial curve, poor fit].
Regarding `COC(=O)c1cc(C#N)c(N(C)Cc2ccccc2)nc1C`, the cell number change turned out to be 14.2%. The AC50 under setting [1] was 2.06 µM [rising, partial curve, poor fit]. The concentration at half-maximal activity (AC50) under setting [2] is 18.4 µM [rising, partial curve].
Regarding `O=C(NC1CCS(=O)(=O)C1)N1CCCCC1` (centres undefined), the cell number change is -13.7%. Also, under setting [1], the half-maximal activity concentration (AC50) was 7.31 µM [falling, single point]. Further, the AC50 under setting [2] is 29.1 µM [falling, single point].
Take `Cc1nc2ccccc2c(=O)n1/N=C/c1c(O)ccc2ccccc12`: the cell number change is -22.3%. For the same compound, the AC50 under setting [1] was 0.82 µM [falling, full curve, poor fit]. Besides, the AC50 under setting [2] was 1.46 µM [falling, partial curve].
For `Cc1noc(C)c1Cn1nc(C(=O)O)c2ccccc2c1=O`, the cell number change was 0.84%.
For `CCCN(C(=O)COC(=O)CSc1ccc([N+](=O)[O-])cc1)C1CCS(=O)(=O)C1` (centres undefined), the cell number change was -7.4%. The AC50 under setting [2] is 1.84 µM [rising, partial curve].
With `COc1ccccc1/C=C/C(=O)NCC(=O)N/N=C(/C)c1ccco1`, the cell number change stood at 2.94%.
On the same count and under the same terms, with `CCCNC(=O)C/C(C)=N/NC(=O)COc1ccc(C)cc1Br` the figure was 7.69%.
On the same count and under the same terms, for `Cc1ccc(-n2c(C)nc3oc4ccccc4c(=O)c3c2=O)cc1` the value was -5.38%.
As for `Cc1sc2ncn(CC(=O)N(CC(=O)NC3CCCC3)Cc3cccs3)c(=O)c2c1C`, the cell number change is -38.7%. In addition, the concentration at half-maximal activity (AC50) under setting [1] was 29.1 µM [falling, single point]. For the same compound, the half-maximal activity concentration (AC50) under setting [2] is 29.1 µM [falling, single point].
On to `CCCS(=O)(=O)N1CCCC(C(=O)NCCCN2CCN(c3ccccc3F)CC2)C1` (centres undefined), for which the cell number change was 5.35%. For the same compound, the concentration at half-maximal activity (AC50) under setting [2] was 6.51 µM [rising, single point].
On to `O=C1/C(=C/c2cccc(F)c2)CSc2sccc21`, for which the cell number change was -19.7%.
As for `COc1ccc(Nc2nc(-c3ccccc3)nc3ccccc23)cc1`, the cell number change was 17.1%. The AC50 under setting [2] is 13 µM [rising, partial curve].
On to `CCN(CC)c1ccc(/C=C(/C#N)c2nc3ccccc3[nH]2)c(OC(C)C)c1`, for which the AC50 under setting [2] is 0.651 µM [falling, full curve].
Regarding `N#Cc1c(SCc2c(Cl)cccc2Cl)nc(N)[nH]c1=S`, the cell number change was -8.82%. Besides, the AC50 under setting [2] is 29.1 µM [falling, partial curve, poor fit].
As to `Cc1ccc(OCC(=O)NCCN2CCOCC2)cc1C`, the cell number change worked out at 34%. Besides, under setting [1], the AC50 is 20.6 µM [rising, single point].
On to `CCOP(=O)(OCC)/C(=N/OC(=O)c1ccc(OC)cc1)C(N)=O`, for which the cell number change was -19.4%. Further, the AC50 under setting [2] is 18.4 µM [falling, single point].
Turning to `O=C(NC(=S)Nc1nc2c(s1)CCCC2)c1ccc(C(=O)c2ccccc2)cc1`, the cell number change is -17.7%. Further, the AC50 under setting [1] is 0.82 µM [falling, full curve, poor fit]. Under setting [2], the half-maximal activity concentration (AC50) was 1.84 µM [falling, partial curve, poor fit].
Consider `CCSc1nc2sc3c(c2c(=O)n1-c1ccccc1)CCN(C)C3`, for which the cell number change is -12.6%.
As to `CCn1c(SCc2cccc(C)c2)nnc1-c1ccccc1`, the cell number change is -0.69%. For the same compound, the AC50 under setting [1] is 6.51 µM [rising, single point]. For the same compound, under setting [2], the AC50 is 29.1 µM [falling, single point].
In the case of `COc1ccc(CCN2CC(C(=O)NCCc3cnn(C)c3)CCC2=O)cc1` (centres undefined), the cell number change was determined as 4.89%. In addition, under setting [2], the AC50 is 20.6 µM [rising, single point].
`Cn1c(=O)[nH]c(=O)c2c1nc(NC1CCCCC1)n2CC(=O)NC1CCCCC1`: the half-maximal activity concentration (AC50) by setting is: under setting [1], 0.461 µM [rising, full curve]; under setting [2], 0.517 µM [rising, full curve].
For the compound `O=C(Nc1ccccc1C(=O)Nc1ccccc1C(=O)O)c1ccccc1`, the cell number change amounted to 20.1%. In addition, the half-maximal activity concentration (AC50) under setting [2] was 0.58 µM [rising, full curve, poor fit].
As for `CCOC(=O)c1ccc(NC(=O)CSc2nc(SC)ns2)cc1`, the cell number change was -10.4%.
Turning to `O=C(O)/C=C/C(=O)Nc1cccnc1`, the cell number change is -17.2%. For the same compound, the concentration at half-maximal activity (AC50) under setting [2] was 0.231 µM [falling, partial curve, poor fit].
As to `Cc1ccc(C(=O)N2CCCC(CCC(=O)N3CCN(c4ccccn4)CC3)C2)cc1` (centres undefined), the cell number change is -34.6%. The concentration at half-maximal activity (AC50) under setting [1] is 29.1 µM [falling, single point]. The AC50 under setting [2] is 6.51 µM [falling, single point].
With `CC1CCCCC1NS(=O)(=O)CCNC(=O)c1ccc2c(c1)OCO2` (centres undefined), the cell number change is -50%. The AC50 under setting [1] was 18.4 µM [falling, single point]. In addition, the concentration at half-maximal activity (AC50) under setting [2] is 29.1 µM [falling, single point].
For the compound `COc1ccc(S(=O)(=O)Nc2cccc(-c3ccc4nncn4n3)c2)cc1F`, the cell number change is -25.2%. Also, the AC50 under setting [2] is 3.26 µM [falling, single point].
As for `CC(NCC(=O)NCCc1ccc(S(N)(=O)=O)cc1)c1ccc(F)cc1` (centres undefined), the cell number change was 19.5%. In addition, the AC50 under setting [2] is 20.6 µM [rising, single point].
With `COc1ccc(C(C)=O)cc1COc1ccc(Cl)cc1Cl`, the cell number change is 20.4%. Also, under setting [2], the concentration at half-maximal activity (AC50) is 29.1 µM [rising, single point].
In the case of `CCOC(=O)/C(C#N)=N/Nc1ccccc1C(=O)O`, the cell number change was -5.47%. Under setting [2], the half-maximal activity concentration (AC50) is 32.6 µM [falling, single point].
On to `CC12CCC(=O)N1C(C(=O)N1CCN(c3cccc(Cl)c3)CC1)CS2` (centres undefined), for which the cell number change was -46.8%. Also, the AC50 under setting [1] was 29.1 µM [falling, single point]. Also, the concentration at half-maximal activity (AC50) under setting [2] was 1.3 µM [falling, partial curve].
Regarding `Cc1ccccc1C(=O)N1CCC(C(=O)N(CC(C)C)c2c(N)n(CC(C)C)c(=O)[nH]c2=O)CC1`, the cell number change is -32%. Besides, the concentration at half-maximal activity (AC50) under setting [1] is 7.31 µM [falling, partial curve, poor fit].
For `Cc1ccc(/C=C/C(=O)NCc2cccs2)c(C)c1`, the cell number change worked out at 14.4%. Besides, under setting [2], the AC50 is 0.731 µM [rising, full curve, poor fit].
As for `O=C(COC(=O)CCN=C1NS(=O)(=O)c2ccccc21)NC1CCCCCCC1`, the cell number change was -47.3%. For the same compound, under setting [1], the AC50 is 32.6 µM [falling, single point]. Besides, under setting [2], the AC50 was 23.1 µM [falling, single point].
For the compound `C/C(=N\NC(=O)c1cc(C)[nH]n1)c1ccc(-c2ccccc2)cc1`, the cell number change came to 15.7%.
Regarding `Cc1ccc(N2CC(C(=O)Nc3ccc(C)c(S(=O)(=O)N(C)C)c3)CC2=O)cc1` (centres undefined), the cell number change was -21.9%. Besides, the AC50 under setting [2] was 0.461 µM [falling, full curve, poor fit].
As to `CCN(c1ccc(NC(=O)COC(=O)c2cc3ccccc3oc2=O)cc1)C(C)C`, the cell number change came to 34.7%.
In the case of `Cn1c(SCC(=O)Nc2ccc(NC(=O)c3cccc(F)c3)cc2)nnc1-c1ccncc1`, the cell number change was -19.4%. Further, the concentration at half-maximal activity (AC50) under setting [2] was 11.6 µM [rising, single point].
Consider `O=C(CCCSc1nc2ccccc2[nH]1)NCc1ccccc1F`, for which the cell number change was -25.5%. Under setting [1], the AC50 is 2.06 µM [rising, single point].
With `Cc1cccc2c1N(CCCOc1ccc(C(C)(C)C)cc1)C(=O)C2=O`, the cell number change is -66.4%. Besides, the AC50 under setting [1] is 25.9 µM [falling, single point]. Further, the half-maximal activity concentration (AC50) under setting [2] was 23.1 µM [falling, partial curve].
For `COc1ccc(/C=N/NC(=O)c2ccc(CSc3nc(C)cc(C)n3)cc2)c(OC)c1OC`, the cell number change was found to be 14.1%. Moreover, the concentration at half-maximal activity (AC50) under setting [2] is 2.06 µM [rising, partial curve].
Consider `Cc1ccc(S(=O)(=O)N/N=C\c2ccc3c(c2)OCO3)cc1`, for which, under setting [2], the AC50 is 32.6 µM [rising, single point].
As to `COc1ccc(CNC(=O)c2cccc(-c3ccc(C)c4ccccc34)n2)cc1`, the cell number change was -10.5%.
For the compound `CCOc1ccc(OCCNC(=O)C(NC(=O)c2c(F)cccc2F)C(C)C)cc1` (centres undefined), the cell number change turned out to be 29.3%. Also, the AC50 under setting [2] is 1.84 µM [falling, partial curve].
Regarding `O=C(Nc1ccc(CN2CCCCC2)cc1)Nc1ccccc1Cl`, the cell number change was -47.8%. In addition, the concentration at half-maximal activity (AC50) under setting [1] is 7.31 µM [falling, single point]. The AC50 under setting [2] is 7.31 µM [falling, partial curve, poor fit].
For `COc1ccc(C(=O)n2cnc(N)n2)cc1`, the cell number change came out at 0.738%. Further, the AC50 under setting [2] is 16.4 µM [rising, partial curve, poor fit].
For the compound `O=C1CC(C(=O)Nc2cccc3ccccc23)C2(CCCC2)O1` (centres undefined), the cell number change was 8.14%. The AC50 under setting [2] is 0.411 µM [rising, partial curve, poor fit].
Turning to `O=C(Oc1ccnc2cc(Cl)ccc12)N1CCCCCC1`, the cell number change is -9.32%.
As for `CCCn1c(SCC(=O)N2CCCCC2)nnc1C(C)C`, the cell number change is -53.2%. The half-maximal activity concentration (AC50) under setting [1] is 18.4 µM [falling, partial curve]. Besides, under setting [2], the AC50 is 23.1 µM [falling, partial curve].
As for `CCc1cc(-c2n[nH]c(C)c2-c2nc3ccccc3n2C)c(O)c(CN2CCN(C)CC2)c1O`, the cell number change is -12.4%. Also, the half-maximal activity concentration (AC50) under setting [1] was 0.116 µM [falling, full curve, poor fit]. Also, under setting [2], the AC50 is 13 µM [falling, partial curve].
Turning to `Nc1nc(SCC(=O)O)[nH]c(=O)c1NC(=O)c1ccccc1F`, the cell number change was -33.2%. Further, the AC50 under setting [1] was 0.058 µM [falling, full curve, poor fit]. Also, the AC50 under setting [2] is 29.1 µM [falling, single point].
For the compound `CCOc1ccccc1NC(=O)c1cc(C(=O)c2cc(OC)ccc2O)coc1=N`, the cell number change was found to be 100%. For the same compound, the half-maximal activity concentration (AC50) under setting [1] was 18.4 µM [rising, partial curve].
As for `Cc1ccc(NC2=NC(c3ccco3)n3c(nc(C)cc3=O)N2)c(C)c1` (centres undefined), the cell number change is -10.8%. The half-maximal activity concentration (AC50) under setting [1] was 0.731 µM [falling, single point]. For the same compound, under setting [2], the half-maximal activity concentration (AC50) was 1.16 µM [rising, single point].
As to `Cc1cc(OCC(=O)NNC(=O)c2ccncc2)cc(C)c1Cl`, the cell number change was -31.2%. Further, the AC50 under setting [1] was 11.6 µM [falling, partial curve]. Under setting [2], the AC50 is 29.1 µM [rising, single point].
Take `NC(=O)C1CCN(C(c2ccccc2Cl)c2nnnn2Cc2ccc3c(c2)OCO3)CC1` (centres undefined): the cell number change worked out at 81.8%. Further, the AC50 under setting [1] was 6.51 µM [rising, full curve].
`COc1cccc(N(C(=O)CNC(=O)c2ccco2)C(C(=O)NC2CCCC2)c2cccnc2)c1` (centres undefined): the cell number change turned out to be 32.5%. Under setting [1], the AC50 was 29.1 µM [rising, single point].

For the origin of these results see PubChem BioAssay AID2685 (National Center for Advancing Translational Sciences (NCATS), 2010).
